Measured values reported in patent US4269827A (The Massachusetts General Hospital, priority 1980, dated 1981).

Assay: general procedure: Boc solid-phase peptide synthesis; polymer beads; dicyclohexylcarbodiimide
Conditions: whole synthesis

PEPTIDE1{P.H.P.F.H.F.F.V.Y.K}$$$$V2.0
crude yield: 53% | isolated yield: 30%

HELM strings list residues between dots; [ac] is acetyl, [am] amide, other brackets name non-standard units.
